Reference: PubChem BioAssay AID2685 (National Center for Advancing Translational Sciences (NCATS), 2010)
The other results are listed elsewhere or left out. The main result of the screen is listed elsewhere. These columns were measured beside it and carry no call. Compounds called inactive in the main read-out are mostly missing here. Words in brackets tell the shape of the fitted curve; partial curves, single points and poor fits give uncertain potencies.

Experiment: qHTS Assay for Lipid Storage Modulators in Drosophila S3 Cells;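 as to cell number change: cells counted by Cell Tracker Red CMTPX staining in the red channel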
Details: BODIPY lipid droplet fluorescence, 18-24 h; for cell number change: measured here: cell count max response, cells fed with added oleic acid
Summary of the method: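 Drosophila S3 cells loaded with oleic acid (400 uM, as added) and compounds at several concentrations; lipid droplets imaged by 488-nm laser-scanning cytometry, 500–530 nm intensity and object ratio to cell channel. Percent activity normalized to 20 uM Triacsin C.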

[1] = measured here: cell number channel AC50, cells fed with added oleic acid
[2] = measured here: lipid fluorescence (Fed channel) AC50, cells fed with added oleic acid

Row | SMILES | cell number change [%] | AC50 [1] | AC50 [2]
1 | CCOc1cc(/C=N/Nc2ccc(C(=O)O)cc2)ccc1OC(=O)c1ccccc1C | 14.8 | 0.0461 µM [rising, full curve, poor fit] | 
2 | Cc1cccc(NC(=O)CCN2CCN(C/C=C/c3ccccc3)CC2)c1 |  |  | 6.51 µM [falling, single point]
3 | CCOC(=O)/C(C#N)=C1/CCCCCN1C | -1.08 | 1.03 µM [rising, full curve, poor fit] | 
4 | COCCn1c(=O)[nH]c2cc(C(=O)N3CCN(c4cccc(Cl)c4)CC3)ccc2c1=O | 5.71 |  | 6.51 µM [rising, single point]
5 | Cc1cc(NC(=O)/C=C/c2ccc(Cl)cc2)no1 | -38.6 | 1.64 µM [falling, partial curve] | 29.1 µM [rising, single point]
6 | CCOc1cc(/C=N/NC(=O)c2cc(-c3cccnc3)nc3ccccc23)ccc1O | 4.35 |  | 
7 | COC(=O)/C(=N/Nc1cccc(C)c1)N1CCCc2ccccc21 | 20.1 |  | 2.06 µM [rising, partial curve, poor fit]
8 | Nc1nnc(CCc2ccccc2)s1 | -13.6 |  | 1.84 µM [rising, partial curve]
9 | C=CCn1c(SCC(=O)c2[nH]c(C)c(C(C)=O)c2C)nnc1-c1ccncc1 |  | 0.164 µM [rising, full curve, poor fit] | 6.51 µM [rising, partial curve, poor fit]
10 | O=S(=O)(Nc1cccc(S(=O)(=O)N2CCCC2)c1)c1ccc(F)cc1 | -6.62 |  | 6.51 µM [rising, single point]
11 | Cc1onc(-c2ccccc2)c1C(=O)NCCCc1ccccc1 | -15.5 |  | 1.64 µM [rising, partial curve, poor fit]
12 | N#Cc1ccc(C(=O)OCC(=O)Nc2ccc(S(N)(=O)=O)cc2)cc1 | -13.6 |  | 29.1 µM [falling, single point]
13 | COc1ccc(C)cc1NC(=O)CNC(=O)c1sc2ccccc2c1Cl | -74.1 | 6.51 µM [falling, full curve] | 
14 | CSCCC(NC(=O)c1ccccc1Cl)C(=O)NNC(=O)c1csc(N2CCOCC2)n1 (stereo not given) | 6.26 |  | 5.8 µM [falling, partial curve, poor fit]
15 | O=C(COc1ccc(Br)cc1)NCCCNC(=O)c1cccnc1 | 29.2 |  | 11.2 µM [rising, partial curve]
16 | O=C(Nc1ccccc1Oc1ccccc1)C1CC1 | -0.446 |  | 0.82 µM [falling, partial curve]
17 | Cc1noc(C)c1COc1cccc(C(=O)N2CCc3ccccc32)c1 | 160 |  | 
18 | O=C(/C(=C(\[O-])c1ccccc1)[n+]1ccc2ccccc2c1)c1ccccc1 | -41.9 | 23.1 µM [falling, single point] | 1.84 µM [rising, partial curve]
19 | COc1ccc(S(=O)(=O)NC2CC(=O)N(c3cccc(F)c3)C2)cc1OC (stereo not given) | -88.5 | 29.1 µM [falling, single point] | 
20 | O=C(/C=C/c1cccc([N+](=O)[O-])c1)NCCSCc1ccc(Cl)cc1 | 50 | 16.4 µM [rising, partial curve] | 2.91 µM [rising, partial curve]

Row | SMILES | cell number change [%] | AC50 [1] | AC50 [2]
21 | CN(Cc1cc(=O)n2ccsc2n1)C1CCCCC1 | 6.25 |  | 0.461 µM [falling, partial curve]
22 | CN(CC(=O)N1CCc2ccccc21)S(=O)(=O)c1ccc(Br)s1 | 37.6 | 13 µM [rising, partial curve, poor fit] | 29.1 µM [rising, single point]
23 | Nc1ccc(S(=O)(=O)NCC(=O)OCCOc2ccccc2)cc1[N+](=O)[O-] | -3 |  | 
24 | O=C(c1ccc(Br)cc1)N1CCCc2ccccc21 | -6.35 |  | 
25 | CCOC(=O)Cc1csc(SCC(=O)Nc2nccs2)n1 | 7.98 |  | 16.4 µM [falling, partial curve, poor fit]
26 | CC(NC(=S)Nc1ccccc1)C1COc2ccccc2O1 (stereo not given) | 2.09 |  | 29.1 µM [rising, single point]
27 | COC(=O)c1ccc(C(=O)N2CCCC(N3CCN(c4ccccc4)CC3)C2)nc1 (stereo not given) | -10.1 |  | 23.1 µM [rising, single point]
28 | C=CCn1c(SCC(=O)Nc2cc(OC)c(NC(=O)c3ccco3)cc2OC)nnc1-c1ccncc1 | 6.26 |  | 5.8 µM [rising, single point]
29 | N#Cc1c(/N=C/N2CCOCC2)sc2c1CCCCC2 | -10.7 |  | 6.51 µM [rising, single point]
30 | O=C(Oc1c(-c2ccccc2)c(=O)n2c3c(cccc13)CC2)c1ccco1 | 0.0346 |  | 0.461 µM [falling, full curve, poor fit]
31 | O=C(CCCn1nnc(-c2cccnc2)n1)c1ccc(F)cc1 | 11.2 | 0.326 µM [rising, full curve] | 1.3 µM [rising, partial curve]
32 | CCC(C)NC(=O)CNC(=S)N(CCCN1CCOCC1)Cc1cccs1 (stereo not given) | 5.19 |  | 3.26 µM [rising, single point]
33 | CSc1nnnn1-c1ccc(Cl)cc1 | 154 | 16.4 µM [rising, single point] | 
34 | Cc1cccc(NC(=O)CN2CCN(C(=O)C3CCC3)CC2)c1C | 16.5 |  | 
35 | CN(C)CC[n+]1ccc(C(=O)c2ccccc2)cc1 | 7.62 |  | 0.651 µM [rising, single point]
36 | CC1CCCN(CC(=O)NC(=O)NC2CCCCC2)C1 (stereo not given) | -7.35 |  | 0.651 µM [rising, single point]
37 | CCn1cc(C(=O)OCC(=O)Nc2c(C)n(C)n(-c3ccccc3)c2=O)c(=O)c2ccc(C)nc21 | 1.22 |  | 
38 | Cc1nc(C)c(C(=O)C2=C(O)C(=O)N(CCCN(C)C)C2c2ccco2)s1 (stereo not given) | 22 | 0.00651 µM [rising, full curve, poor fit] | 
39 | COc1c(C)cc(Br)cc1C(=O)Nc1ccc(N2CCN(S(C)(=O)=O)CC2)cc1 |  |  | 2.06 µM [rising, partial curve]
